Some entries share one result that the patent states for a list of compounds.
B1: Gly422 mutant Ala: Arabidopsis thaliana HPPD (SEQ ID NO 4) with Gly422 replaced by Ala, N-terminal His6-tag (protein, UniProt P93836 1-445, looked up, variant G422A)
4-hydroxyphenylpyruvate …: MGHQNAAVSENQNHDDGAASSPGFKLVGFSKFVRKNPKSDKFKVKRFHHIEFWCGDATNVARRFSWGLGMRFSAKSDLSTGNMVHASYLLTSGDLRFLFTAPYSPSLSAGEIKPTTTASIPSFDHGSCRSFFSSHGLGVRAVAIEVEDAESAFSISVANGAIPSSPPIVLNEAVTIAEVKLYGDVVLRYVSYKAEDTEKSEFLPGFERVEDASSFPLDYGIRRLDHAVGNVPELGPALTYVAGFTGFHQFAEFTADDVGTAESGLNSAVLASNDEMVLLPINEPVHGTKRKSQIQTYLEHNEGAGLQHLALMSEDIFRTLREMRKRSSIGGFDFMPSPPPTYYQNLKKRVGDVLSDDQIKECEELGILVDRDDQGTLLQIFTKPLGDRPTIFIEIIQRVGCMMKDEEGKAYQSGGCGGFGKANFSELFKSIEEYEKTLEAKQLVG
modifications: N-terminal His6-tag
B2: Gly422 mutant Asn: Arabidopsis thaliana HPPD (SEQ ID NO 4) with Gly422 replaced by Asn, N-terminal His6-tag (protein, UniProt P93836 1-445, looked up, variant G422N)
4-hydroxyphenylpyruvate …: MGHQNAAVSENQNHDDGAASSPGFKLVGFSKFVRKNPKSDKFKVKRFHHIEFWCGDATNVARRFSWGLGMRFSAKSDLSTGNMVHASYLLTSGDLRFLFTAPYSPSLSAGEIKPTTTASIPSFDHGSCRSFFSSHGLGVRAVAIEVEDAESAFSISVANGAIPSSPPIVLNEAVTIAEVKLYGDVVLRYVSYKAEDTEKSEFLPGFERVEDASSFPLDYGIRRLDHAVGNVPELGPALTYVAGFTGFHQFAEFTADDVGTAESGLNSAVLASNDEMVLLPINEPVHGTKRKSQIQTYLEHNEGAGLQHLALMSEDIFRTLREMRKRSSIGGFDFMPSPPPTYYQNLKKRVGDVLSDDQIKECEELGILVDRDDQGTLLQIFTKPLGDRPTIFIEIIQRVGCMMKDEEGKAYQSGGCGGFGKNNFSELFKSIEEYEKTLEAKQLVG
modifications: N-terminal His6-tag
B3: Gly422 mutant Asp: Arabidopsis thaliana HPPD (SEQ ID NO 4) with Gly422 replaced by Asp, N-terminal His6-tag (protein, UniProt P93836 1-445, looked up, variant G422D)
4-hydroxyphenylpyruvate …: MGHQNAAVSENQNHDDGAASSPGFKLVGFSKFVRKNPKSDKFKVKRFHHIEFWCGDATNVARRFSWGLGMRFSAKSDLSTGNMVHASYLLTSGDLRFLFTAPYSPSLSAGEIKPTTTASIPSFDHGSCRSFFSSHGLGVRAVAIEVEDAESAFSISVANGAIPSSPPIVLNEAVTIAEVKLYGDVVLRYVSYKAEDTEKSEFLPGFERVEDASSFPLDYGIRRLDHAVGNVPELGPALTYVAGFTGFHQFAEFTADDVGTAESGLNSAVLASNDEMVLLPINEPVHGTKRKSQIQTYLEHNEGAGLQHLALMSEDIFRTLREMRKRSSIGGFDFMPSPPPTYYQNLKKRVGDVLSDDQIKECEELGILVDRDDQGTLLQIFTKPLGDRPTIFIEIIQRVGCMMKDEEGKAYQSGGCGGFGKDNFSELFKSIEEYEKTLEAKQLVG
modifications: N-terminal His6-tag
B4: Gly422 mutant Cys: Arabidopsis thaliana HPPD (SEQ ID NO 4) with Gly422 replaced by Cys, N-terminal His6-tag (protein, UniProt P93836 1-445, looked up, variant G422C)
4-hydroxyphenylpyruvate …: MGHQNAAVSENQNHDDGAASSPGFKLVGFSKFVRKNPKSDKFKVKRFHHIEFWCGDATNVARRFSWGLGMRFSAKSDLSTGNMVHASYLLTSGDLRFLFTAPYSPSLSAGEIKPTTTASIPSFDHGSCRSFFSSHGLGVRAVAIEVEDAESAFSISVANGAIPSSPPIVLNEAVTIAEVKLYGDVVLRYVSYKAEDTEKSEFLPGFERVEDASSFPLDYGIRRLDHAVGNVPELGPALTYVAGFTGFHQFAEFTADDVGTAESGLNSAVLASNDEMVLLPINEPVHGTKRKSQIQTYLEHNEGAGLQHLALMSEDIFRTLREMRKRSSIGGFDFMPSPPPTYYQNLKKRVGDVLSDDQIKECEELGILVDRDDQGTLLQIFTKPLGDRPTIFIEIIQRVGCMMKDEEGKAYQSGGCGGFGKCNFSELFKSIEEYEKTLEAKQLVG
modifications: N-terminal His6-tag
B5: Gly422 mutant His: Arabidopsis thaliana HPPD (SEQ ID NO 4) with Gly422 replaced by His, N-terminal His6-tag (protein, UniProt P93836 1-445, looked up, variant G422H)
4-hydroxyphenylpyruvate …: MGHQNAAVSENQNHDDGAASSPGFKLVGFSKFVRKNPKSDKFKVKRFHHIEFWCGDATNVARRFSWGLGMRFSAKSDLSTGNMVHASYLLTSGDLRFLFTAPYSPSLSAGEIKPTTTASIPSFDHGSCRSFFSSHGLGVRAVAIEVEDAESAFSISVANGAIPSSPPIVLNEAVTIAEVKLYGDVVLRYVSYKAEDTEKSEFLPGFERVEDASSFPLDYGIRRLDHAVGNVPELGPALTYVAGFTGFHQFAEFTADDVGTAESGLNSAVLASNDEMVLLPINEPVHGTKRKSQIQTYLEHNEGAGLQHLALMSEDIFRTLREMRKRSSIGGFDFMPSPPPTYYQNLKKRVGDVLSDDQIKECEELGILVDRDDQGTLLQIFTKPLGDRPTIFIEIIQRVGCMMKDEEGKAYQSGGCGGFGKHNFSELFKSIEEYEKTLEAKQLVG
modifications: N-terminal His6-tag
B6: Gly422 mutant Met: Arabidopsis thaliana HPPD (SEQ ID NO 4) with Gly422 replaced by Met, N-terminal His6-tag (protein, UniProt P93836 1-445, looked up, variant G422M)
4-hydroxyphenylpyruvate …: MGHQNAAVSENQNHDDGAASSPGFKLVGFSKFVRKNPKSDKFKVKRFHHIEFWCGDATNVARRFSWGLGMRFSAKSDLSTGNMVHASYLLTSGDLRFLFTAPYSPSLSAGEIKPTTTASIPSFDHGSCRSFFSSHGLGVRAVAIEVEDAESAFSISVANGAIPSSPPIVLNEAVTIAEVKLYGDVVLRYVSYKAEDTEKSEFLPGFERVEDASSFPLDYGIRRLDHAVGNVPELGPALTYVAGFTGFHQFAEFTADDVGTAESGLNSAVLASNDEMVLLPINEPVHGTKRKSQIQTYLEHNEGAGLQHLALMSEDIFRTLREMRKRSSIGGFDFMPSPPPTYYQNLKKRVGDVLSDDQIKECEELGILVDRDDQGTLLQIFTKPLGDRPTIFIEIIQRVGCMMKDEEGKAYQSGGCGGFGKMNFSELFKSIEEYEKTLEAKQLVG
modifications: N-terminal His6-tag
B7: Gly422 mutant Phe: Arabidopsis thaliana HPPD (SEQ ID NO 4) with Gly422 replaced by Phe, N-terminal His6-tag (protein, UniProt P93836 1-445, looked up, variant G422F)
4-hydroxyphenylpyruvate …: MGHQNAAVSENQNHDDGAASSPGFKLVGFSKFVRKNPKSDKFKVKRFHHIEFWCGDATNVARRFSWGLGMRFSAKSDLSTGNMVHASYLLTSGDLRFLFTAPYSPSLSAGEIKPTTTASIPSFDHGSCRSFFSSHGLGVRAVAIEVEDAESAFSISVANGAIPSSPPIVLNEAVTIAEVKLYGDVVLRYVSYKAEDTEKSEFLPGFERVEDASSFPLDYGIRRLDHAVGNVPELGPALTYVAGFTGFHQFAEFTADDVGTAESGLNSAVLASNDEMVLLPINEPVHGTKRKSQIQTYLEHNEGAGLQHLALMSEDIFRTLREMRKRSSIGGFDFMPSPPPTYYQNLKKRVGDVLSDDQIKECEELGILVDRDDQGTLLQIFTKPLGDRPTIFIEIIQRVGCMMKDEEGKAYQSGGCGGFGKFNFSELFKSIEEYEKTLEAKQLVG
modifications: N-terminal His6-tag

Tested on: Arabidopsis thaliana HPPD
Test: Assay for HPPD activity (4-HPP consumption, DNP photometric readout at 405 nm) in presence and absence of Tembotrione
Format: biochemical
Conditions: no inhibitor
Method: HPPD produces homogentisate and CO2 from 4-HPP and O2. The enzyme is incubated with its substrate 4-HPP in the presence or absence of an inhibitor. L-ascorbic acid is present as a reductant to retain the active site iron in the ferrous form and Catalase is present to degrade toxic H2O2. After an incubation time of one hour, the reaction is stopped by addition of 2,4-Dinitrophenylhydrazine (DNP). DNP forms a hydrazone derivative with the remaining 4-HPP molecules in the assay mixture which appears in an amber-brown colour at an alkaline pH. The amount of unconsumed 4-HPP is measured photometrically at 405 nm.
For preparation of inhibitor stock solutions, Tembotrione (MW=440.82) and DKN (Mw=359.3) are dissolved in DMSO to a concentration of 10 mM. […] Further dilutions are made with ddH2O to obtain the inhibitor solutions used in the assay (5 μM, 10 μM and 20 μM). […] A 2% DMSO solution provides for half of the assay mixture in uninhibited reactions to normalize a possible inhibiting effect of DMSO.
The assay is designed for a HPPD concentration of 444 nM on a monomeric basis and a 4-HPP concentration of 500 μM. This corresponds to 44.4 pmol HPPD and 50 nmol 4-HPP in a 100 μL-assay mixture, resulting in an approximate 1000-fold excess of substrate in relation to the enzyme. The calculated theoretical molecular weight of an AtHPPD subunit is 49.515 kD which results in 2.2 μg HPPD per assay mixture. The calculated theoretical molecular weight of a PfHPPD subunit is 41.205 kD, resulting in 1.8 μg HPPD per assay mixture. The enzyme solution provides for one quarter of the assay mixture volume, so enzyme stock solutions are produced by diluting AtHPPD solutions to 88 μg*mL^−1 with 50 mM TRIS buffer; PfHPPD solutions are diluted to 72 μg*mL^−1.
The inhibitor concentrations (2.5 μM, 5 μM and 10 μM) provide for 5-fold, 10-fold and 20-fold excess of inhibitor compared to the amount of enzyme. A buffer/substrate solution is prepared which provides for one quarter of the assay mixture. 2.5 mL of buffer/substrate solution contain 1 mL 1 M TRIS buffer, 500 μL 10 mM 4-HPP solution, 500 μL 200 mM L-ascorbic acid solution, 13 μL Catalase solution and 487 μL ddH2O. The assay is carried out in Greiner F-bottom 96 well microplates and all reactions are carried out as triplicates. The controls are carried out sixfold per plate and contain either 25 μL 50 mM TRIS instead of HPPD solution (corresponding to 0% consumption of 4-HPP) or a buffer/substrate solution that contains 500 μL 1 M TRIS instead of 500 μL 10 mM 4-HPP (corresponding to 100% consumption of HPP). The reaction is started by addition of 25 μL HPPD solution to a mixture of 50 μL of the respective inhibitor solution or 50 μL 2% DMSO and 25 μL buffer/substrate solution. The reaction is allowed to proceed for 1 h at room temperature. The reaction is stopped and coloration of 4-HPP is induced by addition of 50 μL 0.04% DNP/3.8 N HCl solution. After 15 min, addition of 100 μL 5 N KOH leads to the colour shift of the hydrazone derivative. Photometric measurement with a BMG FLUOstar Galaxy microplate reader is carried out immediately at 405 nm and data obtained is used for analysis of HPPD activities in presence and absence of an inhibitor.

Uninhibited activity of AtHPPD mutant relative to the WT enzyme, ≥ 70%:
B1
B2
B3
B4
B5
B6
B7

Source: patent US20140223597A1, “Mutated Hydroxyphenylpyruvate Dioxygenase, DNA Sequence and Isolation of Plants Which Are Tolerant To HPPD Inhibitor Herbicides” (Bayer CropScience AG, priority 2008, published 2014)
